This is one part of the list.

This assay has as its target T1, OsSMF1 (Oryza sativa, UniProt Q6ZLB0 1-436).
T1 sequence: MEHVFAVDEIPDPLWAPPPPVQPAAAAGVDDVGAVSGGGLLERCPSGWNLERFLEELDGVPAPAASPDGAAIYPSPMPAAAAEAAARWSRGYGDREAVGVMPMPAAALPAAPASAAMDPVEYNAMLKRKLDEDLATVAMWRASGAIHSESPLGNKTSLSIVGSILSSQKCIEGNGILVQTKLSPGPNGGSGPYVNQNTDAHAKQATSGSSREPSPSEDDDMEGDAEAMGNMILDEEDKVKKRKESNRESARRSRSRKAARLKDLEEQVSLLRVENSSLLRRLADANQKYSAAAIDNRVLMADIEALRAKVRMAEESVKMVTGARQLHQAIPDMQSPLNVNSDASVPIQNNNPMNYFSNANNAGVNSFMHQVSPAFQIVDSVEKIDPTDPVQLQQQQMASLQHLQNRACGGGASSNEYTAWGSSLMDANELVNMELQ
Briefly: protein-binding microarray (RPBM); PBS, 2% BSA, 51.3 ng/ul salmon testes DNA, 50 uM zinc acetate, 200 nM TF, 25 C, 1 h; high values mean tight binding. The note with it: protein: recombinant; tags: N-terminal polyhistidine and DsRed monomer fusion (pET32a); chain copies: 2; label: CyDye5-dUTP incorporated in the synthesized complementary strand; 3' TTTTT single-stranded linker to array surface; dsDNA, one strand shown. A digest of the protocol: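 The binding signal is fluorescence intensity per array feature (arbitrary units). Readings came from an Axon 4000B scanner after a washed, 2% BSA-blocked, double-stranded custom Agilent array had been incubated for 1 h at 25 °C with 200 nM protein and 50 µM zinc acetate. The protein was a Ni–NTA-purified transcription factor fused N-terminally to polyhistidine and DsRed, expressed in E. coli BL21-CodonPlus.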
Take “CTCCTCCGCCGCCGCCGCTCCCAGCCTGCACGCCGGCCGCCGGAGTCACCTAGTGCAG”: the binding signal is 26200 fluorescence intensity (a.u.).

For “TTGAAGCCACCGCGGGCGACGCTGACGCATGACGCTCCGGCGGAGTCACCTAGTGCAG”, the binding signal is 7270 fluorescence intensity (a.u.).

With “GCGGTGCGTCGACTGGCAGAGGAGGCTGACGTCATCGCCACGGAGTCACCTAGTGCAG”, the binding signal is 19700 fluorescence intensity (a.u.).

With “ATTTTCTAGACTATGATAATGCTTATGTGTCAATTCATTTCGGAGTCACCTAGTGCAG”, the binding signal is 5800 fluorescence intensity (a.u.).

Regarding “CACAAGTCTCCCATGTCGCCGCCGTCTCGGCGACCACCCCCGGAGTCACCTAGTGCAG”, the binding signal was 4410 fluorescence intensity (a.u.).

For the sequence “TGCAGACTGCATTGTCATGCAGGCCTTACATATAGGGTCACGGAGTCACCTAGTGCAG”, the binding signal was 3650 fluorescence intensity (a.u.).

With “CGATGAAGCGAGGCATGAGGTTGACGACGATGAGGGGAGGCGGAGTCACCTAGTGCAG”, the binding signal was 3230 fluorescence intensity (a.u.).

Take “GCCTAGCCAGGATCGCCGCCGGCGGCGCCGCCGAGTCACACGGAGTCACCTAGTGCAG”: the binding signal is 33100 fluorescence intensity (a.u.).

As for “TTAAGTAGCTACATCTGCTTCAAGAGAGTCTCCCACTTCTCGGAGTCACCTAGTGCAG”, the binding signal was 3310 fluorescence intensity (a.u.).

With “TGCGCCGCCGCCGCCGCCGCCGCTGCGGCGTGCATCCGCCCGGAGTCACCTAGTGCAG”, the binding signal is 37400 fluorescence intensity (a.u.).

For “ATATGGTACTCTACCAAGTTAGCTTCACGAGTTGATTCCACGGAGTCACCTAGTGCAG”, the binding signal was 6570 fluorescence intensity (a.u.).

For “TGAAACCGATTCGGCACCGATACGCTACGCGCGCACGGCCCGGAGTCACCTAGTGCAG”, the binding signal was 20600 fluorescence intensity (a.u.).

For the sequence “TACAGGAGCGATAGGCTCCGCGGCGTTCGTCGCCGAAACTCGGAGTCACCTAGTGCAG”, the binding signal was 27500 fluorescence intensity (a.u.).

As to “CGAGGCTTCCACTCCGCCACCGCCACCGCCACCGCCGCGCCGGAGTCACCTAGTGCAG”, the binding signal is 4160 fluorescence intensity (a.u.).

Turning to “TCGAGTGGTGGCAGCCCATATATGACTTGGCCACTTGTCCCGGAGTCACCTAGTGCAG”, the binding signal was 6500 fluorescence intensity (a.u.).

In the case of “CCGGTGTCACCGCCCTATCTCTCTCACGCATCCCACGCCGCGGAGTCACCTAGTGCAG”, the binding signal was 3770 fluorescence intensity (a.u.).

Consider “ATCCATATATATATATATATATATATATATATATATATATCGGAGTCACCTAGTGCAG”, for which the binding signal was 4260 fluorescence intensity (a.u.).

For the sequence “CTCAACGCTCACGTCGTATCACGTGCCATCCCGCGTCTCCCGGAGTCACCTAGTGCAG”, the binding signal is 3350 fluorescence intensity (a.u.).

Turning to “ATACAAACGTGGCATGTTTGCCCTAACTATTATATCAGTACGGAGTCACCTAGTGCAG”, the binding signal is 5170 fluorescence intensity (a.u.).

For the sequence “TCTCTCACACACACACACACTCTCACTGACTCTGCTGCTGCGGAGTCACCTAGTGCAG”, the binding signal was 3740 fluorescence intensity (a.u.).

Turning to “ATAAAAGGGGCCTAAGCTGAACGAGCTTCGCCACATCAGTCGGAGTCACCTAGTGCAG”, the binding signal is 5040 fluorescence intensity (a.u.).

In the case of “GTGTAGGGCAGCAAGGTGACGTGGCACATGGCGCCGTGTGCGGAGTCACCTAGTGCAG”, the binding signal was 13600 fluorescence intensity (a.u.).

Regarding “ACAGTAAAATTTCTCAAAAGGTCAAATACACAAGTGAACACGGAGTCACCTAGTGCAG”, the binding signal was 7440 fluorescence intensity (a.u.).

Regarding “CACAACAATTTCGCAGCTCATAGCTGGGCACTACCACGCGCGGAGTCACCTAGTGCAG”, the binding signal was 3150 fluorescence intensity (a.u.).

Take “TGAAACATATTTTCATGCGTCGGTGTCATCCTACGTACAACGGAGTCACCTAGTGCAG”: the binding signal was 5460 fluorescence intensity (a.u.).

Turning to “CCCGCCGTGACGTCACCGGCCTATATATATCGCGGTGGCTCGGAGTCACCTAGTGCAG”, the binding signal was 16700 fluorescence intensity (a.u.).

In the case of “TAGATTGCTTTTCAGTGAAACTACGTGCACATATGCATGCCGGAGTCACCTAGTGCAG”, the binding signal is 3250 fluorescence intensity (a.u.).

Turning to “CTTGTATTACGTGTAATATTCATGATTGAGCAGGTTCCAACGGAGTCACCTAGTGCAG”, the binding signal was 4320 fluorescence intensity (a.u.).

Turning to “CCAAGAACTTATAACTTAATGTTTAGATTCTTTGATGACGCGGAGTCACCTAGTGCAG”, the binding signal was 4660 fluorescence intensity (a.u.).

In the case of “GAAGTATCAGTTAACTATACGCCTATACCTGCTAATGAACCGGAGTCACCTAGTGCAG”, the binding signal was 28400 fluorescence intensity (a.u.).

With “CCCCAACTGTCATCGCACGTTGGCGCTGAACTGGTGCGCCCGGAGTCACCTAGTGCAG”, the binding signal is 3780 fluorescence intensity (a.u.).

For the sequence “AGGGAGCAGGGTGGGCGTGTCTTCGTACATTGTTGCCAGGCGGAGTCACCTAGTGCAG”, the binding signal was 3820 fluorescence intensity (a.u.).

Take “ACTGATTGGGATGCCACGTCAACGAAACTAGATATCCATACGGAGTCACCTAGTGCAG”: the binding signal was 8680 fluorescence intensity (a.u.).

For “CGGCAGCGGCAGTGTAGTGTCAGTCACTGGGTGTGCGCTTCGGAGTCACCTAGTGCAG”, the binding signal was 3390 fluorescence intensity (a.u.).

Turning to “AAAGCGGACGTCATCATTCATCCTCGAGCCCCTCAACTGGCGGAGTCACCTAGTGCAG”, the binding signal was 8430 fluorescence intensity (a.u.).

As to “ATGGTCCATGTCGCCGTACGTGACACCGGCCGCGAGCCTACGGAGTCACCTAGTGCAG”, the binding signal is 3200 fluorescence intensity (a.u.).

Take “CTAGTTATAGAAATAGATAAAATCAATGACAAATCGTTGACGGAGTCACCTAGTGCAG”: the binding signal is 3190 fluorescence intensity (a.u.).

Regarding “CTTGAGTCTCACTGTAGTTGAACTGCCTCCACGCAAGTTACGGAGTCACCTAGTGCAG”, the binding signal was 4040 fluorescence intensity (a.u.).

As to “GATCCCGGCAACATTGGAGAAGATCATGACGGGGACGACCCGGAGTCACCTAGTGCAG”, the binding signal is 4210 fluorescence intensity (a.u.).

As for “GCATGTAGCTATGCAGCCATCCACGTCACTCCTTGCGTACCGGAGTCACCTAGTGCAG”, the binding signal was 31800 fluorescence intensity (a.u.).

On to “TTACAAACAACGCCTTGCATGATTGCATCATCGCCCTAAACGGAGTCACCTAGTGCAG”, for which the binding signal was 4300 fluorescence intensity (a.u.).

With “TTCGACCACGTCGTCGGCAACGTGCCGGAGCTCGCTCCGGCGGAGTCACCTAGTGCAG”, the binding signal is 3210 fluorescence intensity (a.u.).

On to “TATCATACCCACGTCGGTGCCCATTGGGTCACCCACGCGTCGGAGTCACCTAGTGCAG”, for which the binding signal is 5520 fluorescence intensity (a.u.).

Take “GTGTTATGAGTTGTGCCACCGTCTTCTCTCCCGTATAATCCGGAGTCACCTAGTGCAG”: the binding signal is 3340 fluorescence intensity (a.u.).

For “ATCATTATTCCTACGTGTTTACAATTCTTCGATAAAATACCGGAGTCACCTAGTGCAG”, the binding signal was 4060 fluorescence intensity (a.u.).

In the case of “CTTTTGCTTCTGTCGTGTTGTGTGTACCCAACGTGGGGTGCGGAGTCACCTAGTGCAG”, the binding signal was 3930 fluorescence intensity (a.u.).

Turning to “ATTGAAGCCTATTTATTGGTAATACGTAATCTAGATTTGACGGAGTCACCTAGTGCAG”, the binding signal is 3700 fluorescence intensity (a.u.).

As to “CATTCTTGATTTCATACGTAATAGCGATATGTTTCAATGTCGGAGTCACCTAGTGCAG”, the binding signal is 22300 fluorescence intensity (a.u.).

Turning to “TTTAAACCTAGTTGTGTCATGATTTTACAATGTGGTGCTACGGAGTCACCTAGTGCAG”, the binding signal is 3390 fluorescence intensity (a.u.).

On to “GTAAAGTTTTAGTACCTCGAGATATTATTTTGAAAACCATCGGAGTCACCTAGTGCAG”, for which the binding signal was 3290 fluorescence intensity (a.u.).

On to “TGGGCTGATGCGCGACCATACTGACGCGTGTGCGGCAGATCGGAGTCACCTAGTGCAG”, for which the binding signal was 4450 fluorescence intensity (a.u.).

Consider “TCATGCAGACGTTCAAACGTTCGATGTGATAGGGCGTAAACGGAGTCACCTAGTGCAG”, for which the binding signal is 3390 fluorescence intensity (a.u.).

In the case of “TGGTCCTCTTTGTCTGAAATCGACGGGTAGCAATGCACGCCGGAGTCACCTAGTGCAG”, the binding signal is 27900 fluorescence intensity (a.u.).

“GCTTTAGGCCGATTTTGTTGGTGTGGCCGAATTTTGTGTGCGGAGTCACCTAGTGCAG”: the binding signal is 3870 fluorescence intensity (a.u.).
